# Laboratory results from the supplement of paper PMC8728848.
# This is one part of the list.
# Experiments:
# Assay in all cases: glycan array binding signal (z-score within array); higher = stronger binding
# Conditions in all cases: glycan notation: IUPAC condensed, linker removed
# [1] = biological target: Gal(b1-4)GlcNAc(b1-2)[Gal(b1-4)GlcNAc(b1-6)]Man(a1-6)[GlcNAc(b1-4)][Gal(b1-4)GlcNAc(b1-2)Man(a1-3)]Man(b1-4)GlcNAc(b1-4)GlcNAc
# Summary of the method: (§1)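 Negative Z-scores can be read as non-binding. The Z-score is calculated within each array and then averaged across arrays of one protein sequence at different concentrations or buffers and across linkers. Arrays, 3228 in all, were curated from the Consortium for Functional Glycomics database and kept only where the protein sequence was available.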
# [2] = biological target: Gal(b1-4)GlcNAc(b1-2)[Gal(b1-4)GlcNAc(b1-6)]Man(a1-6)[GlcNAc(b1-4)][Gal(b1-4)GlcNAc(b1-2)[Gal(b1-4)GlcNAc(b1-4)]Man(a1-3)]Man(b1-4)GlcNAc(b1-4)[Fuc(a1-6)]GlcNAc
# Summary of the method: as §1
# [3] = biological target: Gal(b1-4)GlcNAc(b1-3)Gal(b1-3)GalNAc
# Summary of the method: as §1
# [4] = biological target: Gal(b1-4)GlcNAc(b1-3)Gal(b1-3)GlcNAc
# Summary of the method: as §1
# [5] = biological target: Gal(b1-4)GlcNAc(b1-3)Gal(b1-4)Glc
# Summary of the method: as §1
# [6] = biological target: Gal(b1-4)GlcNAc(b1-3)Gal(b1-4)GlcNAc
# Summary of the method: as §1
# [7] = biological target: Gal(b1-4)GlcNAc(b1-3)Gal(b1-4)GlcNAc(b1-2)Man(a1-3)[Gal(b1-4)GlcNAc(b1-3)Gal(b1-4)GlcNAc(b1-2)Man(a1-6)]Man(b1-4)GlcNAc(b1-4)GlcNAc
# Summary of the method: as §1
# [8] = biological target: Gal(b1-4)GlcNAc(b1-3)Gal(b1-4)GlcNAc(b1-2)Man(a1-3)[Gal(b1-4)GlcNAc(b1-3)Gal(b1-4)GlcNAc(b1-2)Man(a1-6)]Man(b1-4)GlcNAc(b1-4)[Fuc(a1-6)]GlcNAc
# Summary of the method: as §1
# [9] = biological target: Gal(b1-4)GlcNAc(b1-3)Gal(b1-4)GlcNAc(b1-2)[Gal(b1-4)GlcNAc(b1-3)Gal(b1-4)GlcNAc(b1-6)]Man(a1-6)[Gal(b1-4)GlcNAc(b1-3)Gal(b1-4)GlcNAc(b1-2)Man(a1-3)]Man(b1-4)GlcNAc(b1-4)GlcNAc
# Summary of the method: as §1
# [10] = biological target: Gal(b1-4)GlcNAc(b1-3)Gal(b1-4)GlcNAc(b1-2)[Gal(b1-4)GlcNAc(b1-3)Gal(b1-4)GlcNAc(b1-6)]Man(a1-6)[Gal(b1-4)GlcNAc(b1-3)Gal(b1-4)GlcNAc(b1-2)Man(a1-3)]Man(b1-4)GlcNAc(b1-4)[Fuc(a1-6)]GlcNAc
# Summary of the method: as §1
# [11] = biological target: Gal(b1-4)GlcNAc(b1-3)Gal(b1-4)GlcNAc(b1-3)Gal(b1-4)GlcNAc
# Summary of the method: as §1
# [12] = biological target: Gal(b1-4)GlcNAc(b1-3)Gal(b1-4)GlcNAc(b1-3)Gal(b1-4)GlcNAc(b1-2)Man(a1-3)[Gal(b1-4)GlcNAc(b1-3)Gal(b1-4)GlcNAc(b1-3)Gal(b1-4)GlcNAc(b1-2)Man(a1-6)]Man(b1-4)GlcNAc(b1-4)GlcNAc
# Summary of the method: as §1
# [13] = biological target: Gal(b1-4)GlcNAc(b1-3)Gal(b1-4)GlcNAc(b1-3)Gal(b1-4)GlcNAc(b1-2)Man(a1-3)[Gal(b1-4)GlcNAc(b1-3)Gal(b1-4)GlcNAc(b1-3)Gal(b1-4)GlcNAc(b1-2)Man(a1-6)]Man(b1-4)GlcNAc(b1-4)[Fuc(a1-6)]GlcNAc
# Summary of the method: as §1
# [14] = biological target: Gal(b1-4)GlcNAc(b1-3)Gal(b1-4)GlcNAc(b1-3)Gal(b1-4)GlcNAc(b1-2)[Gal(b1-4)GlcNAc(b1-3)Gal(b1-4)GlcNAc(b1-3)Gal(b1-4)GlcNAc(b1-6)]Man(a1-6)[Gal(b1-4)GlcNAc(b1-3)Gal(b1-4)GlcNAc(b1-3)Gal(b1-4)GlcNAc(b1-2)Man(a1-3)]Man(b1-4)GlcNAc(b1-4)[Fuc(a1-6)]GlcNAc
# Summary of the method: as §1
# [15] = biological target: Gal(b1-4)GlcNAc(b1-3)Gal(b1-4)GlcNAc(b1-3)Gal(b1-4)GlcNAc(b1-3)Gal(b1-4)GlcNAc(b1-2)Man(a1-3)[Gal(b1-4)GlcNAc(b1-3)Gal(b1-4)GlcNAc(b1-3)Gal(b1-4)GlcNAc(b1-3)Gal(b1-4)GlcNAc(b1-2)Man(a1-6)]Man(b1-4)GlcNAc(b1-4)GlcNAc
# Summary of the method: as §1
# [16] = biological target: Gal(b1-4)GlcNAc(b1-3)Gal(b1-4)GlcNAc(b1-3)Gal(b1-4)GlcNAc(b1-3)Gal(b1-4)GlcNAc(b1-2)Man(a1-3)[Gal(b1-4)GlcNAc(b1-3)Gal(b1-4)GlcNAc(b1-3)Gal(b1-4)GlcNAc(b1-3)Gal(b1-4)GlcNAc(b1-2)Man(a1-6)]Man(b1-4)GlcNAc(b1-4)[Fuc(a1-6)]GlcNAc
# Summary of the method: as §1
# [17] = biological target: Gal(b1-4)GlcNAc(b1-3)Gal(b1-4)GlcNAc(b1-3)Gal(b1-4)GlcNAc(b1-3)Gal(b1-4)GlcNAc(b1-2)[Gal(b1-4)GlcNAc(b1-3)Gal(b1-4)GlcNAc(b1-3)Gal(b1-4)GlcNAc(b1-3)Gal(b1-4)GlcNAc(b1-6)]Man(a1-6)[Gal(b1-4)GlcNAc(b1-3)Gal(b1-4)GlcNAc(b1-3)Gal(b1-4)GlcNAc(b1-3)Gal(b1-4)GlcNAc(b1-2)Man(a1-3)]Man(b1-4)GlcNAc(b1-4)[Fuc(a1-6)]GlcNAc
# Summary of the method: as §1
# [18] = biological target: Gal(b1-4)GlcNAc(b1-3)Gal(b1-4)GlcNAc(b1-3)Gal(b1-4)GlcNAc(b1-3)Gal(b1-4)GlcNAc(b1-3)Gal(b1-4)GlcNAc(b1-2)Man(a1-3)[Gal(b1-4)GlcNAc(b1-3)Gal(b1-4)GlcNAc(b1-3)Gal(b1-4)GlcNAc(b1-3)Gal(b1-4)GlcNAc(b1-3)Gal(b1-4)GlcNAc(b1-2)Man(a1-6)]Man(b1-4)GlcNAc(b1-4)GlcNAc
# Summary of the method: as §1
# [19] = biological target: Gal(b1-4)GlcNAc(b1-3)Gal(b1-4)GlcNAc(b1-3)Gal(b1-4)GlcNAc(b1-3)Gal(b1-4)GlcNAc(b1-3)Gal(b1-4)GlcNAc(b1-2)Man(a1-3)[Gal(b1-4)GlcNAc(b1-3)Gal(b1-4)GlcNAc(b1-3)Gal(b1-4)GlcNAc(b1-3)Gal(b1-4)GlcNAc(b1-3)Gal(b1-4)GlcNAc(b1-2)Man(a1-6)]Man(b1-4)GlcNAc(b1-4)[Fuc(a1-6)]GlcNAc
# Summary of the method: as §1
# [20] = biological target: Gal(b1-4)GlcNAc(b1-3)Gal(b1-4)GlcNAc(b1-3)Gal(b1-4)GlcNAc(b1-3)Gal(b1-4)GlcNAc(b1-3)Gal(b1-4)GlcNAc(b1-2)[Gal(b1-4)GlcNAc(b1-3)Gal(b1-4)GlcNAc(b1-3)Gal(b1-4)GlcNAc(b1-3)Gal(b1-4)GlcNAc(b1-3)Gal(b1-4)GlcNAc(b1-6)]Man(a1-6)[Gal(b1-4)GlcNAc(b1-3)Gal(b1-4)GlcNAc(b1-3)Gal(b1-4)GlcNAc(b1-3)Gal(b1-4)GlcNAc(b1-3)Gal(b1-4)GlcNAc(b1-2)Man(a1-3)]Man(b1-4)GlcNAc(b1-4)[Fuc(a1-6)]GlcNAc
# Summary of the method: as §1
# [21] = biological target: Gal(b1-4)GlcNAc(b1-3)Gal(b1-4)GlcNAc(b1-3)Gal(b1-4)GlcNAc(b1-3)Gal(b1-4)GlcNAc(b1-3)Gal(b1-4)GlcNAc(b1-3)Gal(b1-4)GlcNAc(b1-2)Man(a1-3)[Gal(b1-4)GlcNAc(b1-3)Gal(b1-4)GlcNAc(b1-3)Gal(b1-4)GlcNAc(b1-3)Gal(b1-4)GlcNAc(b1-3)Gal(b1-4)GlcNAc(b1-3)Gal(b1-4)GlcNAc(b1-2)Man(a1-6)]Man(b1-4)GlcNAc(b1-4)GlcNAc
# Summary of the method: as §1
# [22] = biological target: Gal(b1-4)GlcNAc(b1-3)Gal(b1-4)GlcNAc(b1-3)GalNAc
# Summary of the method: as §1
# [23] = biological target: Gal(b1-4)GlcNAc(b1-3)Gal(b1-4)GlcNAc(b1-3)[Gal(b1-4)GlcNAc(b1-3)Gal(b1-4)GlcNAc(b1-6)]GalNAc
# Summary of the method: as §1
binder,measurement,setting,value
PhypaEULS3 (Physcomitrella patens) (protein) MLPVRLHCKADPNFNLAAVPGQGPVMVPFSPNDDFQVWYKDVTMSTRVKDETGSSAFSLINKATGQALRHAPEDLAQCLLADYDSNALDQTVLWTMSEDMGQGYCCIRLASQITRNLDVFRGDKKSGGVKEGSPVITFAWKKQDNQIWKMITAILEQKLISEEDLNSAVDHHHHHH,glycan array binding signal (z-score),[1],-0.969
same,glycan array binding signal (z-score),[2],-1.18
same,glycan array binding signal (z-score),[3],2.27
same,glycan array binding signal (z-score),[4],-0.074
same,glycan array binding signal (z-score),[5],0.496
same,glycan array binding signal (z-score),[6],-0.248
same,glycan array binding signal (z-score),[7],1.43
same,glycan array binding signal (z-score),[8],0.163
same,glycan array binding signal (z-score),[9],1.48
same,glycan array binding signal (z-score),[10],-1.26
same,glycan array binding signal (z-score),[11],-1.46
same,glycan array binding signal (z-score),[12],0.233
same,glycan array binding signal (z-score),[13],-0.462
same,glycan array binding signal (z-score),[14],-1.91
same,glycan array binding signal (z-score),[15],-1.57
same,glycan array binding signal (z-score),[16],-0.557
same,glycan array binding signal (z-score),[17],-1.45
same,glycan array binding signal (z-score),[18],-0.151
same,glycan array binding signal (z-score),[19],-0.139
same,glycan array binding signal (z-score),[20],-1.24
same,glycan array binding signal (z-score),[21],-1.31
same,glycan array binding signal (z-score),[22],2
same,glycan array binding signal (z-score),[23],1.52

# 2 records drawn at random from the list so far, as already listed:
binder,measurement,setting,value
PhypaEULS3 (Physcomitrella patens) (protein) MLPVRLHCKADPNFNLAAVPGQGPVMVPFSPNDDFQVWYKDVTMSTRVKDETGSSAFSLINKATGQALRHAPEDLAQCLLADYDSNALDQTVLWTMSEDMGQGYCCIRLASQITRNLDVFRGDKKSGGVKEGSPVITFAWKKQDNQIWKMITAILEQKLISEEDLNSAVDHHHHHH,glycan array binding signal (z-score),[3],2.27
same,glycan array binding signal (z-score),[16],-0.557
